Source: PubChem BioAssay AID248 (DTP/NCI, 2004)
The list does not hold the whole screen: it gathers tests that were run many times, whatever their T/C, doses with no T/C, and many T/C values between a quarter and a half above the control. Further doses and runs are listed elsewhere. T/C: endpoint of the treated group in % of that of the vehicle group. Some entries give survivors of the animals treated and no T/C: the source files T/C as zero there, which appears to mark a toxic dose or a test without result, not a measured value. Some doses without a T/C left all or most animals alive at the check, yet need not have been tolerated: survival well below the control is almost never listed, so the zero probably covers shortened survival too. Survivors were counted at the toxicity check, usually on the fifth day, unless a day is given; later deaths do not show. Schedules are NCI's codes, taken here to give the interval after Q, in days (D) or hours (H), and the number of doses after X. Some schedule codes hold Z or #, which are not explained here. For survival time, this PubChem deposit counts one and a half times the control or more as active, and values a quarter to a half above the control carry no call in these data; other NCI protocols may use other cut-offs. Some T/C values are followed by the survivors on the day toxicity was checked, most often the fifth; without a count, all were alive then.

Tested on: L1210 leukemia ip in BDF1 mice, survival T/C
Assay: NCI In Vivo Anticancer Drug Screen. Data for tumor model L1210 Leukemia (intraperitoneal) in B6D2F1 (BDF1) mice
Conditions: higher T/C = longer survival
[1] = T/C endpoint: mean survival time, dose: 400.0 mg/kg/injection, schedule: Q04DX003 (ip), vehicle: saline

O=c1cccc[nH]1
T/C (T/C endpoint: mean survival time, dose: 100.0 mg/kg/injection, schedule: Q01DX009 (ip), vehicle: saline): 125 % of control | survivor count (T/C endpoint: mean survival time, dose: 400.0 mg/kg/injection, schedule: Q01DX009 (ip), vehicle: saline): 2 of 6 | survivor count (T/C endpoint: mean survival time, dose: 400.0 mg/kg/injection, schedule: Q04DX002 (ip), vehicle: saline): 0 of 3

NC(=NCc1ccccc1)c1ncn(C2CCCC2)c1N
survivor count (T/C endpoint: mean survival time, dose: 100.0 mg/kg/injection, schedule: Q01DX001 (ip), vehicle: Klucel (hydroxypropylcellulose) (HPC)): 1 of 6 | survivor count (T/C endpoint: mean survival time, dose: 200.0 mg/kg/injection, schedule: Q01DX001 (ip), vehicle: Klucel (hydroxypropylcellulose) (HPC)): 0 of 6 | survivor count (T/C endpoint: mean survival time, dose: 400.0 mg/kg/injection, schedule: Q01DX001 (ip), vehicle: Klucel (hydroxypropylcellulose) (HPC)): 0 of 6

Cn1[nH]c(=O)c2ncccc2c1=O
T/C (T/C endpoint: mean survival time, dose: 400.0 mg/kg/injection, schedule: Q04DX002 (ip), vehicle: Klucel (hydroxypropylcellulose) (HPC)): 126 % of control [2 of 3 alive] | survivor count (T/C endpoint: mean survival time, dose: 800.0 mg/kg/injection, schedule: Q04DX002 (ip), vehicle: saline): 1 of 3

CC(C)(C)OC(=O)CNC(=O)CCl
survivor count [1]: 2 of 6

O=C(Nc1ccc(C2=NCCS2)cc1)c1ccc(C(=O)Nc2ccc(C3=NCCS3)cc2)cc1
survivor count (T/C endpoint: mean survival time, dose: 250.0 mg/kg/injection, schedule: Q01DX Z (ip), vehicle: water): 2 of 6 | survivor count (T/C endpoint: mean survival time, dose: 500.0 mg/kg/injection, schedule: Q01DX Z (ip), vehicle: water): 2 of 6

O=C(CCN1CCCCC1)c1cccc([N+](=O)[O-])c1
survivor count (T/C endpoint: mean survival time, dose: 100.0 mg/kg/injection, schedule: Q04DX003 (ip), vehicle: saline): 0 of 6 | survivor count (T/C endpoint: mean survival time, dose: 200.0 mg/kg/injection, schedule: Q04DX003 (ip), vehicle: saline): 0 of 6 | survivor count [1]: 0 of 6

CC(C)(C1c2ccccc2NC(=O)c2ccccc21)[N+](=O)[O-] (stereo not drawn)
survivor count (T/C endpoint: mean survival time, dose: 400.0 mg/kg/injection, schedule: Q04DX003 (ip), vehicle: saline with Tween-80): 1 of 6

CC(NCCOc1ccccc1)c1ccccc1 (stereo not drawn)
survivor count (T/C endpoint: mean survival time, dose: 400.0 mg/kg/injection, schedule: Q04DX002 (ip), vehicle: saline with Tween-80): 0 of 3

CO[C@H]1C[C@H](O[C@H]2CC[C@]3(C=O)[C@H]4CC[C@]5(C)[C@@H](C6=CC(=O)OC6)CC[C@]5(O)[C@@H]4CC[C@]3(O)C2)O[C@H](C)[C@H]1O[C@@H]1O[C@H](CO)[C@@H](O)[C@H](O)[C@H]1O
survivor count (T/C endpoint: mean survival time, dose: 1.0 mg/kg/injection, schedule: Q01DX001 (ip), vehicle: saline): 0 of 4 | survivor count (T/C endpoint: mean survival time, dose: 2.0 mg/kg/injection, schedule: Q01DX001 (ip), vehicle: saline): 2 of 4 | survivor count (T/C endpoint: mean survival time, dose: 2.0 mg/kg/injection, schedule: Q04DX003 (ip), vehicle: saline): 4 of 6 | survivor count (T/C endpoint: mean survival time, dose: 4.0 mg/kg/injection, schedule: Q01DX015 (ip), vehicle: carboxymethylcellulose (CMC)): 1 of 6 | survivor count (T/C endpoint: mean survival time, dose: 4.0 mg/kg/injection, schedule: Q04DX003 (ip), vehicle: saline): 0 of 6 | survivor count (T/C endpoint: mean survival time, dose: 5.0 mg/kg/injection, schedule: Q01DX001 (ip), vehicle: saline): 0 of 4 | survivor count (T/C endpoint: mean survival time, dose: 10.0 mg/kg/injection, schedule: Q01DX001 (ip), vehicle: saline): 0 of 4 | survivor count (T/C endpoint: mean survival time, dose: 20.0 mg/kg/injection, schedule: Q01DX001 (ip), vehicle: saline): 0 of 4 | survivor count (T/C endpoint: mean survival time, dose: 40.0 mg/kg/injection, schedule: Q01DX001 (ip), vehicle: saline): 0 of 4 | survivor count (T/C endpoint: median survival time, dose: 2.0 mg/kg/injection, schedule: Q01DX005 (ip), vehicle: water): 3 of 6

Cc1c2ccnc(-c3ccccc3)c2cc2c1[nH]c1ccccc12
survivor count (T/C endpoint: mean survival time, dose: 1000.0 mg/kg/injection, schedule: Q01DX015 (oral), vehicle: carboxymethylcellulose (CMC)): 6 of 6 | survivor count (T/C endpoint: mean survival time, dose: 2000.0 mg/kg/injection, schedule: Q01DX015 (oral), vehicle: carboxymethylcellulose (CMC)): 6 of 6

O=C1OC(=O)C2C3OC(C(Cl)C3Cl)C12 (stereo not drawn)
survivor count (T/C endpoint: mean survival time, dose: 400.0 mg/kg/injection, schedule: Q01DX009 (ip), vehicle: Klucel (hydroxypropylcellulose) (HPC)): 2 of 6

Cc1cc2oc(=O)c3c(c2c(O)c1CN1CCOCC1)CCCC3
survivor count (T/C endpoint: mean survival time, dose: 200.0 mg/kg/injection, schedule: Q01DX001 (ip), vehicle: carboxymethylcellulose (CMC)): 4 of 4

CS(=O)(=O)N1C=CC=CC=C1
survivor count (T/C endpoint: mean survival time, dose: 100.0 mg/kg/injection, schedule: Q04DX003 (ip), vehicle: Klucel (hydroxypropylcellulose) (HPC)): 2 of 6 | survivor count (T/C endpoint: mean survival time, dose: 200.0 mg/kg/injection, schedule: Q04DX003 (ip), vehicle: Klucel (hydroxypropylcellulose) (HPC)): 2 of 6 | survivor count (T/C endpoint: mean survival time, dose: 400.0 mg/kg/injection, schedule: Q04DX003 (ip), vehicle: Klucel (hydroxypropylcellulose) (HPC)): 0 of 6
